For the assay, the system named is BDF1 mice, P388 leukemia ip, median survival T/C. Put plainly: NCI In Vivo Anticancer Drug Screen. Data for tumor model P388 Leukemia (intraperitoneal) in B6D2F1 (BDF1) mice. The conditions noted are these: T/C endpoint: median survival time, higher T/C = longer survival. The essentials:
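Each value expresses how treatment altered survival: treated-mouse outcome over vehicle-mouse outcome, both groups bearing the transplanted tumour.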

The mark [1] stands for this setting: dose: 400.0 mg/kg/injection, schedule: Q04DX003 (ip), vehicle: saline with Tween-80.
The mark [2] stands for this setting: dose: 200.0 mg/kg/injection, schedule: Q04DX003 (ip), vehicle: saline.
[3] abbreviates: dose: 400.0 mg/kg/injection, schedule: Q04DX003 (ip), vehicle: saline.
Where [4] appears, read: dose: 50.0 mg/kg/injection, schedule: Q01DX009 (ip), vehicle: saline.
Where [5] appears, read: dose: 400.0 mg/kg/injection, schedule: Q01DX009 (ip), vehicle: Klucel (hydroxypropylcellulose) (HPC).
Setting [6] is: dose: 50.0 mg/kg/injection, schedule: Q01DX009 (ip), vehicle: saline with Tween-80.

Experimental findings from PubChem BioAssay AID328 (DTP/NCI, 2004) are described below.

The list does not hold the whole screen: it is rich in T/C values a quarter to a half above the control, in often repeated tests (any T/C) and in doses without a T/C. Further doses and runs are listed elsewhere. T/C is the treated group as % of the vehicle group. Some doses have a count of surviving animals in place of a T/C: the source files T/C as zero there, which appears to mark a toxic dose or a test without result, not a measured value. Some survivor counts are full or nearly so, which does not show that the dose was tolerated: the source hardly ever lists a survival T/C far under the control, and the zero likely stands for such cases as well. Counts of survivors are from the toxicity check (mostly the fifth day) where no day follows; animals may have died later. Schedule codes are those of the source, read here as Q, the interval in days (D) or hours (H), X, the number of doses. Where survival is the endpoint, the PubChem record calls one and a half times the control and up active, and a quarter to a half above the control has no call in these data; cut-offs in other NCI protocols can differ. Some doses were run more than once; the results are listed from low to high.

Consider `CCC1(O)CC2CN(CCc3c([nH]c4ccccc34)C(C(=O)OC)(c3cc4c(cc3OC)N(C)C3C(O)(C(=O)NCCSSCCNC(=O)C5(O)C(O)C6(CC)C=CCN7CCC8(c9cc(C%10(C(=O)OC)CC%11CN(CCc%12c%10[nH]c%10ccccc%12%10)CC(O)(CC)C%11)c(OC)cc9N(C)C58)C76)C(O)C5(CC)C=CCN6CCC43C65)C2)C1` (centres undefined), for which the survivor count (dose: 2000.0 micrograms/kg/injection, schedule: Q04DX003 (ip), vehicle: saline) is on record as 5 of 8 and the survivor count (dose: 3000.0 micrograms/kg/injection, schedule: Q04DX003 (ip), vehicle: saline) is 8 of 8.

`CCCCCCCCOB(OCCCCCCCC)OCCCCCCCC`: the survivor count is, setting by setting: (dose: 200.0 mg/kg/injection, schedule: Q04DX003 (ip), vehicle: saline with Tween-80) 3 of 6; under setting [1], 5 of 6.

Regarding `O=S1(=O)C=C(c2ccccc2)C1`, the survivor count (dose: 200.0 mg/kg/injection, schedule: Q01DX009 (ip), vehicle: saline with Tween-80) was 1 of 6.

`CC(=O)OS(C)(=O)=O`: the survivor count by setting is: under setting [2], 3 of 6; under setting [3], 1 of 6.

`N=C(N)SCc1ccc(CSC(=N)N)s1`: the survivor count under setting [4] was 1 of 6.

`CC(C)=CCC/C(C)=C/Cn1cnc2c(ncn2C2OC(CO)C(O)C2O)c1=O` (centres undefined): the survivor count (dose: 100.0 mg/kg/injection, schedule: Q04DX003 (ip), vehicle: saline) was 5 of 6; the survivor count under setting [2] is 2 of 6; the survivor count under setting [3] was 0 of 6.

Regarding `CC[C@H](CC[C@@H](C)[C@H]1CC[C@H]2[C@@H]3CC=C4C[C@@H](OC(=O)CSC(CC(=O)O)C(=O)O)CC[C@]4(C)[C@H]3CC[C@]12C)C(C)C` (some centres undefined), the survivor count under setting [5] is recorded as 5 of 6.

For the molecule `Clc1c(CI)ccc(CI)c1Cl`, the T/C was 127 % of control (dose: 11.0 mg/kg/injection, schedule: Q04DX003 (ip), vehicle: saline sonified); 127 % of control (dose: 25.0 mg/kg/injection, schedule: Q01DX009 (ip), vehicle: saline sonified); 125 % of control (dose: 25.0 mg/kg/injection, schedule: Q04DX003 (ip), vehicle: Klucel (hydroxypropylcellulose) (HPC)); 138 % of control (dose: 25.0 mg/kg/injection, schedule: Q04DX003 (ip), vehicle: saline sonified); 144 % of control (dose: 37.5 mg/kg/injection, schedule: Q04DX003 (ip), vehicle: saline sonified). Where the note is “dose: 37.5 mg/kg/injection, schedule: Q01DX009 (ip), vehicle: saline with Tween-80”, the survivor count is reported as 4 of 6.

Consider `Cc1cc2c3ccccc3ccc2[n+]2ccccc12`, for which, where the note is “dose: 6.1 mg/kg/injection, schedule: Q01DX009 (ip), vehicle: saline”, the T/C is 125 % of control. Also, the survivor count is on record as 0 of 6 (dose: 18.75 mg/kg/injection, schedule: Q01DX009 (ip), vehicle: saline); 0 of 6 (dose: 28.12 mg/kg/injection, schedule: Q01DX009 (ip), vehicle: saline); 0 of 6 (dose: 37.5 mg/kg/injection, schedule: Q01DX009 (ip), vehicle: saline); 1 of 6 (dose: 75.0 mg/kg/injection, schedule: Q04DX003 (ip), vehicle: alcohol); 0 of 6 (dose: 150.0 mg/kg/injection, schedule: Q04DX003 (ip), vehicle: alcohol).

Turning to `O=C(CNC(=O)Nc1ccc(C2=NCCN2)cc1)Nc1ccc(C2=NCCN2)cc1`, under setting [6], the T/C was 125 % of control.

In the case of `C=CCN1C(=O)C=CC1=O`, where the note is “dose: 1.5 mg/kg/injection, schedule: Q01DX009 (ip), vehicle: saline”, the T/C was 133 % of control. In addition, the survivor count (dose: 6.0 mg/kg/injection, schedule: Q01DX009 (ip), vehicle: saline) is 5 of 6.

For the molecule `CN=C(N)c1ccc(NC(=O)c2ccc(C(=O)Nc3ccc(C(N)=NC)cc3)cc2)cc1`, the T/C (dose: 120.0 mg/kg/injection, schedule: Q01DX010 (ip), vehicle: saline) was 140 % of control.

Take `O=C1c2cccc(O)c2C(=O)c2c(O)cc(CO)cc21`: the survivor count reads like this: (dose: 5.0 mg/kg/injection, schedule: Q01DX010 (ip), vehicle: other) 4 of 4; (dose: 100.0 mg/kg/injection, schedule: Q01DX010 (ip), vehicle: carboxymethylcellulose (CMC)) 6 of 6; (dose: 150.0 mg/kg/injection, schedule: Q01DX010 (ip), vehicle: carboxymethylcellulose (CMC)) 6 of 6. The T/C is, setting by setting: (dose: 20.0 mg/kg/injection, schedule: Q01DX010 (ip), vehicle: other) 133 % of control; (dose: 40.0 mg/kg/injection, schedule: Q01DX010 (ip), vehicle: other) 136 % of control; (dose: 80.0 mg/kg/injection, schedule: Q01DX010 (ip), vehicle: other) 129 and 131 % of control.

`Cc1cc(C(C(N)=O)c2ccccc2)ccc1N(CCCl)CCCl` (centres undefined): the T/C by setting is: (dose: 0.51 mg/kg/injection, schedule: Q01DX009 (ip), vehicle: Klucel (hydroxypropylcellulose) (HPC)) 130 % of control; (dose: 1.17 mg/kg/injection, schedule: Q01DX009 (ip), vehicle: Klucel (hydroxypropylcellulose) (HPC)) 140 % of control; (dose: 9.0 mg/kg/injection, schedule: Q04DX003 (ip), vehicle: saline) 136 % of control; (dose: 18.75 mg/kg/injection, schedule: Q01DX009 (ip), vehicle: Klucel (hydroxypropylcellulose) (HPC)) 130 % of control. The survivor count (dose: 28.12 mg/kg/injection, schedule: Q01DX009 (ip), vehicle: Klucel (hydroxypropylcellulose) (HPC)) is reported as 6 of 6.

Turning to `COC(=O)c1cc(C)c(Br)c(OC)c1`, the survivor count is listed as 6 of 6 (dose: 100.0 mg/kg/injection, schedule: Q01DX009 (ip), vehicle: Klucel (hydroxypropylcellulose) (HPC)); 6 of 6 (dose: 200.0 mg/kg/injection, schedule: Q01DX009 (ip), vehicle: Klucel (hydroxypropylcellulose) (HPC)); 3 of 6 under setting [5].

Consider `O=COCC(O)COC=O`, for which, under setting [3], the survivor count was 5 of 6.

As to `NNC(=O)OC12CC3CC(CC(C3)C1)C2`, the survivor count reads like this: (dose: 255.0 mg/kg/injection, schedule: Q01DX001 (ip), vehicle: Klucel (hydroxypropylcellulose) (HPC)) 3 of 6; (dose: 385.0 mg/kg/injection, schedule: Q04DX003 (ip), vehicle: Klucel (hydroxypropylcellulose) (HPC)) 6 of 6.

As for `Clc1[nH]nc2ccccc12`, the survivor count was 6 of 6 (dose: 25.0 mg/kg/injection, schedule: Q01DX009 (ip), vehicle: saline with Tween-80) and 6 of 6 under setting [6].

Turning to `CN(Cc1ccc(Nc2ccccc2)cc1)C1CCCCC1`, the T/C (dose: 200.0 mg/kg/injection, schedule: Q01DX009 (ip), vehicle: other) is 142 % of control.

Regarding `CN=C(N)NCCCCCCCCNC(N)=NC`, the survivor count is recorded as 2 of 6 (dose: 25.0 mg/kg/injection, schedule: Q01DX009 (ip), vehicle: saline) and 0 of 6 under setting [4].

Take `NC(Cc1ccccc1Cl)c1nn[nH]n1` (centres undefined): the survivor count (dose: 100.0 mg/kg/injection, schedule: Q04DX002 (ip), vehicle: saline with Tween-80) is listed as 1 of 6.

Turning to `CCCCNC(C)(C)C(SC(C)=O)c1ccc(Cl)cc1` (centres undefined), the survivor count under setting [1] is on record as 3 of 6.

As for `CC(Cl)CN(CC(C)Cl)c1ccc(S(=O)(=O)Nc2ncccn2)cc1` (centres undefined), the T/C (dose: 18.0 mg/kg/injection, schedule: Q01DX009 (ip), vehicle: gum acacia) is 144 % of control. For the same molecule, the survivor count (dose: 300.0 mg/kg/injection, schedule: Q01DX009 (ip), vehicle: gum acacia) is listed as 5 of 6.

For the molecule `CC12NC(=O)NC1(C)NC(=O)N2` (centres undefined), the survivor count under setting [1] is on record as 2 of 6.

With `CNCC(=O)NC(CO)C(=O)NC1C(C(N)=O)OC(n2ccc(N)nc2=O)C(O)C1O` (centres undefined), the survivor count was 3 of 8 (dose: 6.0 mg/kg/injection, schedule: Q04DX003 (ip), vehicle: saline) and 4 of 8 (dose: 12.0 mg/kg/injection, schedule: Q04DX003 (ip), vehicle: saline).

Regarding `COc1cc(C(=O)N2CC2)cc(OC)c1OC`, the survivor count (dose: 100.0 mg/kg/injection, schedule: Q01DX009 (ip), vehicle: water) is given as 1 of 6.

As to `CCN1C(=O)Nc2ccc(Cl)cc2C1(O)c1ccccc1` (centres undefined), the survivor count (dose: 100.0 mg/kg/injection, schedule: Q01DX009 (ip), vehicle: saline with Tween-80) was 6 of 6.
